Test results as given in article PMC8732282.
These are yes or no findings as the source states them, for the method shown. Binding seen in cells or lysates may run through a third protein. Some binding calls cover weakened binding; strength is not graded here.

By UniProt entry, the sequences of proteins in these tests, tags left out. Residues count along the entry.
UniProt P53350: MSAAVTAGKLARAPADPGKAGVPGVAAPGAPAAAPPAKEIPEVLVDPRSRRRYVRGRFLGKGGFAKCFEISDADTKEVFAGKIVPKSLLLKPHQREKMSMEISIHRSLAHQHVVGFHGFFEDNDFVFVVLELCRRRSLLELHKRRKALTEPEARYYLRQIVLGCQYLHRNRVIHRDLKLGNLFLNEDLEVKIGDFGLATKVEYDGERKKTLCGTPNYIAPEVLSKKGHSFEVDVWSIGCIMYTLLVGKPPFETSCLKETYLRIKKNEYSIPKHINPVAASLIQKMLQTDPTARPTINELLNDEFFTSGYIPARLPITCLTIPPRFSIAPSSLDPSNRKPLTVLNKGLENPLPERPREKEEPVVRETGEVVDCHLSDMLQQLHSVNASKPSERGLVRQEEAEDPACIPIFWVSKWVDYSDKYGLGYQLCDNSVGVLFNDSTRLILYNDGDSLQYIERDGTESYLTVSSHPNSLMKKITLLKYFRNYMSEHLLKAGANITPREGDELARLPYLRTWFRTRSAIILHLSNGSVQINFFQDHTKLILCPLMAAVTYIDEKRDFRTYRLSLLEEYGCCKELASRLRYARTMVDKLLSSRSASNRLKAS
UniProt Q05397: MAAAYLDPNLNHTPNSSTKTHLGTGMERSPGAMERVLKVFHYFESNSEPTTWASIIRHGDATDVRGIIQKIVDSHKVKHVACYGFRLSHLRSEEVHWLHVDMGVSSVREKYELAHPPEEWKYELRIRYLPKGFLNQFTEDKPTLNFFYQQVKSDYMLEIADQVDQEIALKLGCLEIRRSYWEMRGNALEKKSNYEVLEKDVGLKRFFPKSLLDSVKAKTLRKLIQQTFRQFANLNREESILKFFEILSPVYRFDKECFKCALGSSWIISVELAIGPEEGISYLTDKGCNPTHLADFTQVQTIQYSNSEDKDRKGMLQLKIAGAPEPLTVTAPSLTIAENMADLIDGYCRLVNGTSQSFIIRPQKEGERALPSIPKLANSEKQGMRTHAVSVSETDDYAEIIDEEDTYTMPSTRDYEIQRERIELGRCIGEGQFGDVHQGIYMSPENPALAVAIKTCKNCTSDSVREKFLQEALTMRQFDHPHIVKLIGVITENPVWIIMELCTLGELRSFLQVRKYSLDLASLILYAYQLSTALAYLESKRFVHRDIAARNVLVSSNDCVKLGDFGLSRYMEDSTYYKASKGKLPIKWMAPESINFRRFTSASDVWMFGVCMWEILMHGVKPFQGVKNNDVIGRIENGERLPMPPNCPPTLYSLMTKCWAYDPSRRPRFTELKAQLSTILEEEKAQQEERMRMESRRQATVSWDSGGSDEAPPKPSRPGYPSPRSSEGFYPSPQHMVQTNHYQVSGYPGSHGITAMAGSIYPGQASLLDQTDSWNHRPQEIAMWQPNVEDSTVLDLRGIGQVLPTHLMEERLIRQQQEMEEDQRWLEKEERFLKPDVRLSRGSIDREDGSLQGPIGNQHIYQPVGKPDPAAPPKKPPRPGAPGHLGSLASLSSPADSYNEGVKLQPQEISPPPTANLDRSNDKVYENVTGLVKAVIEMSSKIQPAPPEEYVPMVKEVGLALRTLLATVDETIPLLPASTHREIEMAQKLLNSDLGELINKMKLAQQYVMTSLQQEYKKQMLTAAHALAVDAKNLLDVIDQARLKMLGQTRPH
UniProt P40763: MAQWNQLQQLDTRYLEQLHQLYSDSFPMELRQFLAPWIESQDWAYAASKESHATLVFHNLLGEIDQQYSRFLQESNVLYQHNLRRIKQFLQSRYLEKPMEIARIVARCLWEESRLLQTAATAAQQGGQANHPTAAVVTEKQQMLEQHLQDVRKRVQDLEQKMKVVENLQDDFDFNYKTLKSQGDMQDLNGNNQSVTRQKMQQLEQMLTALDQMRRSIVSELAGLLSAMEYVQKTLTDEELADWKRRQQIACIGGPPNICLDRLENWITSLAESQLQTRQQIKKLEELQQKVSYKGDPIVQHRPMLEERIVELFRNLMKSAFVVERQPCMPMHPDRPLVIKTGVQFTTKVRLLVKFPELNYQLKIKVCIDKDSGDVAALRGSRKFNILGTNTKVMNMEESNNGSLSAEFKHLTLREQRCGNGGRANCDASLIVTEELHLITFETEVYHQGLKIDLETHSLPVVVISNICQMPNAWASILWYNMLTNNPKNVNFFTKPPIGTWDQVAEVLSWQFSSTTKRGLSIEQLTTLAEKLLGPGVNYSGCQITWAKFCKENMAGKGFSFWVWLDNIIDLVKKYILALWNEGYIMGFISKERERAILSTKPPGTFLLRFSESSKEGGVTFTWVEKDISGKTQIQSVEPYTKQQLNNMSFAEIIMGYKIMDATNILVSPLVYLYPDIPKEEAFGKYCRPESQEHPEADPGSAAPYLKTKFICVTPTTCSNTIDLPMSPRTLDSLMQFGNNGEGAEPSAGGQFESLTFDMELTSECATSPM
UniProt Q8N122: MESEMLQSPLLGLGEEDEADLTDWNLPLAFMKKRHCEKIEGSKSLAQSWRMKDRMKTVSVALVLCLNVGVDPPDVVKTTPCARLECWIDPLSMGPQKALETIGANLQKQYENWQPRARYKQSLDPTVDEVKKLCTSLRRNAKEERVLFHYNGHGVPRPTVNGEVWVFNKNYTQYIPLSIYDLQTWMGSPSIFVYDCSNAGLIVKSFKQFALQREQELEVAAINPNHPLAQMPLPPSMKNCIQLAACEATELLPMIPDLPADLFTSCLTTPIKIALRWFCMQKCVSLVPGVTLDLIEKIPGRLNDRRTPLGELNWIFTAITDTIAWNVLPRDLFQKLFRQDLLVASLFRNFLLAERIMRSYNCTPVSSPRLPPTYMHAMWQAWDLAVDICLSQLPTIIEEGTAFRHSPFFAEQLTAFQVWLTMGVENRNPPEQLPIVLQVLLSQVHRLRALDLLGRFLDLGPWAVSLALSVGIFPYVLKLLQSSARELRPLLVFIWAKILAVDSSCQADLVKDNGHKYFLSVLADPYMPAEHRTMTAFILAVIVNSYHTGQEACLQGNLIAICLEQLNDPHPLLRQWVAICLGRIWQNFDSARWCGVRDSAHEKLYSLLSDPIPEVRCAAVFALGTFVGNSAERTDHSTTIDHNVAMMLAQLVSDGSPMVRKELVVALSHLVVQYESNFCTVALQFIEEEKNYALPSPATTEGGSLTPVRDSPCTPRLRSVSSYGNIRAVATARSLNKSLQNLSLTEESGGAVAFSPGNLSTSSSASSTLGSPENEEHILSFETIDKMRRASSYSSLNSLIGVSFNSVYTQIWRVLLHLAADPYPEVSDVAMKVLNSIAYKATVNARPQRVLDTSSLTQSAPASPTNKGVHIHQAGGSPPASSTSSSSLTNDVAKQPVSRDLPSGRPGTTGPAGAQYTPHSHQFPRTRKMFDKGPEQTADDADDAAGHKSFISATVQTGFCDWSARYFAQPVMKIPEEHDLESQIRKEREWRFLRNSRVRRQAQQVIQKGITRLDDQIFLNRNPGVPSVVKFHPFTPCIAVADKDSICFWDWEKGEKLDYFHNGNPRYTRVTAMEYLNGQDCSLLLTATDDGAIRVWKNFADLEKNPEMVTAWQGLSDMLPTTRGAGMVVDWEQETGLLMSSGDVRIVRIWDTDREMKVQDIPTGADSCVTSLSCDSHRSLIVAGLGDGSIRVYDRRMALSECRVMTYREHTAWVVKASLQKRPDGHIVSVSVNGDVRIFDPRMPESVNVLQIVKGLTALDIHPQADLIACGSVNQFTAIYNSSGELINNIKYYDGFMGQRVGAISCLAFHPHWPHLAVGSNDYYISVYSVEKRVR
UniProt P08581, residues 25-1390: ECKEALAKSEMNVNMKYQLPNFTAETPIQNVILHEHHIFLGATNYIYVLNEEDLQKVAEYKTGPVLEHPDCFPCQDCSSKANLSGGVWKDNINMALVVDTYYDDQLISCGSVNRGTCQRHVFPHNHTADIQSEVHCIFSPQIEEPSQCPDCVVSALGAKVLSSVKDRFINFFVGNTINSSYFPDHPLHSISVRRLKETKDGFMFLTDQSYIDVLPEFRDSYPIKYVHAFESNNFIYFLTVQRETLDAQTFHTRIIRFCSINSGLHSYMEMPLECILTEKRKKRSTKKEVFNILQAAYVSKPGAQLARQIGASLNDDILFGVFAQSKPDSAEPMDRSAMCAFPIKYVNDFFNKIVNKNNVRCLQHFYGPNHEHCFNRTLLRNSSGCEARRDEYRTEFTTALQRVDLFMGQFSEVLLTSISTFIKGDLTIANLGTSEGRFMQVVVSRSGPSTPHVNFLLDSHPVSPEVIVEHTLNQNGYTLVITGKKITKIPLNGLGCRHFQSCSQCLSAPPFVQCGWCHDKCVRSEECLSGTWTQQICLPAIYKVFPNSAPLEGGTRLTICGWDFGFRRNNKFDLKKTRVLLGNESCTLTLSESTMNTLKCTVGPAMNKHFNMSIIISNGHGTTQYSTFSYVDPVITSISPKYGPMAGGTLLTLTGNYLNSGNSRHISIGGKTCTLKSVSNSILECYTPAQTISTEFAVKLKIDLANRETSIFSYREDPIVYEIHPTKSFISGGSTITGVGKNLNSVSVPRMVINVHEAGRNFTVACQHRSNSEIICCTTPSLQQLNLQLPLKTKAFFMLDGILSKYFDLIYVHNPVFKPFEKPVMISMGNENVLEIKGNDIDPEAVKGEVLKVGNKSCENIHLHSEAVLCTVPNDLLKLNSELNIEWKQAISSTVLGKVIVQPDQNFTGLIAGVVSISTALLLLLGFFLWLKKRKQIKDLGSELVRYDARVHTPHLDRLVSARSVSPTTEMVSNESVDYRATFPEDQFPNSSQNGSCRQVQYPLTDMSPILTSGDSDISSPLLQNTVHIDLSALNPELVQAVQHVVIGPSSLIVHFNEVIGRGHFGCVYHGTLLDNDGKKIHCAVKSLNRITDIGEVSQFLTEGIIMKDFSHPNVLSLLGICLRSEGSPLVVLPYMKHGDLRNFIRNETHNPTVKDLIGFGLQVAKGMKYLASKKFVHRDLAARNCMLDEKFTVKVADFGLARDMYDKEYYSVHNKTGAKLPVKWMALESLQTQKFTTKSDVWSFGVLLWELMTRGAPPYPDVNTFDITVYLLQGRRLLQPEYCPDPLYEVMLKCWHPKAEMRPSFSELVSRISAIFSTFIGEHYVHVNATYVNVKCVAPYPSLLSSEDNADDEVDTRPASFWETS

The substances below were run against polo-like kinase-1 (PLK1) (human (endogenous in HCT116 and SW480)) (UniProt P53350) (assay: co-IP; lysates of HCT116 cells expressing GRB7 or vector control, immunoprecipitated with PLK1 antibody or immunoglobulin G control, blotted with the indicated antibodies).

Question: How did the binding turn out when “FAK (from UniProt Q05397 1-1052) (enzyme)” was run?
Answer: binds

Question: “FLAG-tagged GRB7 (growth factor receptor-bound protein 7) (from UniProt Q14451 1-532)” was tested. Which binding did it give?
Answer: binds

Question: Which binding does the source give for STAT3 (from UniProt P40763 1-770) here?
Answer: binds

Question: For “regulatory associated protein of mTOR complex 1 (RPTOR) (from UniProt Q8N122 1-1335)”, which binding is on record?
Answer: binds

These substances were tested against FLAG-tagged GRB7 (growth factor receptor-bound protein 7) (UniProt Q14451) (assay: co-IP; lysates of HCT116 (and SW480) cells expressing FLAG-GRB7 or vector control, immunoprecipitated with Flag antibody or immunoglobulin G control, blotted with the indicated antibodies).

Question: With “EGFR (from UniProt P00533 25-1210) (receptor)” as the substance, how does the binding read?
Answer: binds

Question: “MET (from UniProt P08581 25-1390) (receptor)” was tested. Which binding did it give?
Answer: binds

Question: For “phosphorylated PLK1 (from UniProt P53350 1-603) (enzyme)”, which binding is on record?
Answer: binds

Question: For “polo-like kinase-1 (PLK1) (from UniProt P53350 1-603) (enzyme)”, which binding is on record?
Answer: binds

Question: For “regulatory associated protein of mTOR complex 1 (RPTOR) (from UniProt Q8N122 1-1335)”, which binding is on record?
Answer: binds
